In the experiment the target is GST-AcHog1 fusion protein (Aspergillus cristatus). Nature of the experiment: affinity purification with mass spectrometry; GST-AcHog1 pull-down from total proteins of A. cristatus cultivated under normal osmotic stress (WT-D) and hypertonic stress (WT-H, MYA with 3 M NaCl, 7 days); proteins detected by LC-MS/MS; only the target purified.

Protein sequences, listed by entry. Tags and fused reporters are not part of them. Lines headed by an entry give the natural chain unless they say otherwise; changes in a name come on top.
UniProt A0A1E3B957: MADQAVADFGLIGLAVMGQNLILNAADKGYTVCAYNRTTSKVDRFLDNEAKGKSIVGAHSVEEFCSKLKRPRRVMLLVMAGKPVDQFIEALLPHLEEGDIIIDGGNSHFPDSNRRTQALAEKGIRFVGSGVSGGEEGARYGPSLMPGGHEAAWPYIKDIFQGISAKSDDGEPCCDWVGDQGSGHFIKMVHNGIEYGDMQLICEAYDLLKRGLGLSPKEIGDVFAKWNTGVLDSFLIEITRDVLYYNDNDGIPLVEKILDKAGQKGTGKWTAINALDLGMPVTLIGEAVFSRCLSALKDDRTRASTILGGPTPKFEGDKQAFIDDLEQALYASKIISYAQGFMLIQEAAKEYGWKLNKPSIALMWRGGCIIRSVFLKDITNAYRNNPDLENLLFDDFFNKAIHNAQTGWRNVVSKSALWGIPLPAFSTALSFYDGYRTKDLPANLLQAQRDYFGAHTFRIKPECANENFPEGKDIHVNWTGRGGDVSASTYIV
UniProt A0A1E3BGW2: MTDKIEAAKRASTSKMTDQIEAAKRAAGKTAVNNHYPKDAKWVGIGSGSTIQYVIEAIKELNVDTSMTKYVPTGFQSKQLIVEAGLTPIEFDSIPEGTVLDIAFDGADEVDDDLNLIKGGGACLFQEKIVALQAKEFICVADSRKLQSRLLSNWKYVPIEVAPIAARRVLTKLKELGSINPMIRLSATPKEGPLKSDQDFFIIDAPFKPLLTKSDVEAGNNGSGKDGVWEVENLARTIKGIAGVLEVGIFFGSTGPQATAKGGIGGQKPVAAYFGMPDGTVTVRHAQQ
UniProt A0A1E3BK58: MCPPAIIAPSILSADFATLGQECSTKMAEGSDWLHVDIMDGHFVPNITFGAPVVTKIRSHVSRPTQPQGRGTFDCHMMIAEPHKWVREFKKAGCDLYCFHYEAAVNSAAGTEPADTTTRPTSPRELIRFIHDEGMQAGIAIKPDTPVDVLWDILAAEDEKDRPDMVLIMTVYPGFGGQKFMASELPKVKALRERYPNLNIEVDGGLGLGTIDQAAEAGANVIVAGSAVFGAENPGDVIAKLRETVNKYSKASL
UniProt A0A1E3BD42: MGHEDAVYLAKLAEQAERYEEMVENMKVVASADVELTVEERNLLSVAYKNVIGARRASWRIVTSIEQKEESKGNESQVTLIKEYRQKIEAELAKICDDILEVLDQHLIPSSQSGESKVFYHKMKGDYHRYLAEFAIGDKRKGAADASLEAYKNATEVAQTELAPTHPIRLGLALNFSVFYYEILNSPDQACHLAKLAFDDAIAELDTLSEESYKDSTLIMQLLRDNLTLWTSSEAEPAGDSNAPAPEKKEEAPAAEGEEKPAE
UniProt A0A1E3B0Z7: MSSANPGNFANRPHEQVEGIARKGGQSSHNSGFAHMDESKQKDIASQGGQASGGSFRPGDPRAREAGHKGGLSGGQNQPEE
UniProt A0A1E3BB62: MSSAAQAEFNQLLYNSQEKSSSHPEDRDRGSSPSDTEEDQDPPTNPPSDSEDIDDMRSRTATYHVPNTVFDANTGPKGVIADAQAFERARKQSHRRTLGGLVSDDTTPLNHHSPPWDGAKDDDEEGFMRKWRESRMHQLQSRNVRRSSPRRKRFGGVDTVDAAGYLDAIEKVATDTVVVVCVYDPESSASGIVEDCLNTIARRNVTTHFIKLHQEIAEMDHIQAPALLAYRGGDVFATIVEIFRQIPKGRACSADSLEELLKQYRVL
UniProt A0A1E3BER4: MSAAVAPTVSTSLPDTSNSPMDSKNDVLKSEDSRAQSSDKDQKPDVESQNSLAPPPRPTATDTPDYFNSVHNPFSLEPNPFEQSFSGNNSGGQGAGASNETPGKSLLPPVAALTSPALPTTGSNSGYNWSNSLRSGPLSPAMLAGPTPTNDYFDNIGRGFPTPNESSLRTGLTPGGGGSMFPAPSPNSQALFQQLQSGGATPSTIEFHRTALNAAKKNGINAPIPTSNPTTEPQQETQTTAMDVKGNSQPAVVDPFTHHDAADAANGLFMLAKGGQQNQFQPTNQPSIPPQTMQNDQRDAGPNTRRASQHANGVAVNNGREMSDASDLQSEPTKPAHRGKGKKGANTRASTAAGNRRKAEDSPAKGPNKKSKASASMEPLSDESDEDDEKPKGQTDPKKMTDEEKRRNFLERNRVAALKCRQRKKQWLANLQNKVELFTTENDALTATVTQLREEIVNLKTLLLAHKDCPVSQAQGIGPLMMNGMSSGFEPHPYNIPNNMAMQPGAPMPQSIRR
UniProt A0A1E3BC73: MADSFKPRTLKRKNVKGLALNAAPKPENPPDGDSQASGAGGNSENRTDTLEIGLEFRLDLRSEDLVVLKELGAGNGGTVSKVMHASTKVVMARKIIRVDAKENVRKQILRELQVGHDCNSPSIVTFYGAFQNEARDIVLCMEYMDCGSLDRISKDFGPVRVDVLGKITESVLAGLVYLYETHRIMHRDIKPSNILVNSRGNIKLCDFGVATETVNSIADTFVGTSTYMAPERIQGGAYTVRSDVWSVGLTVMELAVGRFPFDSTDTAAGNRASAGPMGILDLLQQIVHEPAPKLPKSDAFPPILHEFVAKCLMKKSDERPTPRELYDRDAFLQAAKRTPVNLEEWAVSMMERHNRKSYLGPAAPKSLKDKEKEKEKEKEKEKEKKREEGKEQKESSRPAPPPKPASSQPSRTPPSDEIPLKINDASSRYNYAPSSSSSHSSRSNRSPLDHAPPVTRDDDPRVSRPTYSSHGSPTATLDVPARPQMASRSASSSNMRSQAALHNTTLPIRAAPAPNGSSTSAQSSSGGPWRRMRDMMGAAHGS
UniProt A0A1E3BMS4: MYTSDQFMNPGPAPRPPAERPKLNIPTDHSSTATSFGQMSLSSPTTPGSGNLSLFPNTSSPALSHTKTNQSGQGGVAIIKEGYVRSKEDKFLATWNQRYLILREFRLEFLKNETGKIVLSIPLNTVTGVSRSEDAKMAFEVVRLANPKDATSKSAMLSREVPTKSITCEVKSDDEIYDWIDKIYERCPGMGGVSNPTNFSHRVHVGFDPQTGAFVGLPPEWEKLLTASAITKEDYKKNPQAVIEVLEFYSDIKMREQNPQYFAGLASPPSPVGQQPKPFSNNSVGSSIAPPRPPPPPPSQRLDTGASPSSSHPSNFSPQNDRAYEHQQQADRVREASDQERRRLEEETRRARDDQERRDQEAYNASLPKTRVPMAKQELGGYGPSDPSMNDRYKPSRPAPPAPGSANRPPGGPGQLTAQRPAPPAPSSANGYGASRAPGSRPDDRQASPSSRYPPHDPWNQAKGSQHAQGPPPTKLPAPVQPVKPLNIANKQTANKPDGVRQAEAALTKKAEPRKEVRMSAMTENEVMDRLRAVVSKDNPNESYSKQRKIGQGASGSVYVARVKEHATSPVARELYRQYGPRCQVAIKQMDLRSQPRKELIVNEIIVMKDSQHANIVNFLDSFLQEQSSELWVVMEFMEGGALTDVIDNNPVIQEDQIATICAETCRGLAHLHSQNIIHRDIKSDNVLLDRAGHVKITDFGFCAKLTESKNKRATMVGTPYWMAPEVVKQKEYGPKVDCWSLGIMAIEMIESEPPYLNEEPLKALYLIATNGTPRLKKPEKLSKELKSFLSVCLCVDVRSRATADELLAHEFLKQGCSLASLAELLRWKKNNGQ
UniProt A0A1E3B0F0: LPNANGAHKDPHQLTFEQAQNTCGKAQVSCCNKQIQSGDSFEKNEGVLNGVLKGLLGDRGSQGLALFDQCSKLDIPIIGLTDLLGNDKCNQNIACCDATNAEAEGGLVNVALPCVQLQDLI
UniProt A0A1E3B873: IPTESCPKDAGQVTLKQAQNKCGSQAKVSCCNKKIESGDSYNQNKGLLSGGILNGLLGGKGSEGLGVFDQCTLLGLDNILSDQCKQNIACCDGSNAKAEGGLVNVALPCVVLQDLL
UniProt A0A1E3B8J2: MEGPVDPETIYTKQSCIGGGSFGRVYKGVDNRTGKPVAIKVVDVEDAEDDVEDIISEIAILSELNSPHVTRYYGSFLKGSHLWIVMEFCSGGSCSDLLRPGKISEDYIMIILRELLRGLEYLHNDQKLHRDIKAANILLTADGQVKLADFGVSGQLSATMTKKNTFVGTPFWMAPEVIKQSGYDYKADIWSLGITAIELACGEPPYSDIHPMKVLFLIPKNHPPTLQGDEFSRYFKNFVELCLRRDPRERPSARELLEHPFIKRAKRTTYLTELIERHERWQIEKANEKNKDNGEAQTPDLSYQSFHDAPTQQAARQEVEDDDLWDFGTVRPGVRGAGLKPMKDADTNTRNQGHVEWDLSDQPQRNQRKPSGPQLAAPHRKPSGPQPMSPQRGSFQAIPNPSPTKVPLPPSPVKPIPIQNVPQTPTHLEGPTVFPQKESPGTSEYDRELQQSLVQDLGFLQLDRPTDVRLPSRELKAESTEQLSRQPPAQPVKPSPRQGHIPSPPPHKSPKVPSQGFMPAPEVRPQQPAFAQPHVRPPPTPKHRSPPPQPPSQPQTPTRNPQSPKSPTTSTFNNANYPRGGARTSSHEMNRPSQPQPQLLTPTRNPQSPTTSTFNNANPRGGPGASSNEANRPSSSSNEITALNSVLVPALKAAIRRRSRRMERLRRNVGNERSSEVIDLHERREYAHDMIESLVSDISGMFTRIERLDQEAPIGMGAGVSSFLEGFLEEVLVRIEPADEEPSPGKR

Results on twelve substances are retold here after article PMC9733950.

These are yes or no findings as the source states them, for the method shown. In cells and extracts the contact can be indirect. These calls come from enrichment with a bait or labelling near it, and not all partners need be listed.

For the substance “6-phosphogluconate dehydrogenase (A0A1E3B957) (from UniProt A0A1E3B957) (enzyme)”, the binding result is on record as “binds”. The result for A0A1E3BGW2 (from UniProt A0A1E3BGW2) reads “binds”; that for A0A1E3BK58 (from UniProt A0A1E3BK58), “binds”; that for “AcBmh1 (endogenous) (from UniProt A0A1E3BD42)”, “binds”. To “AcCsp (endogenous) (from UniProt A0A1E3B0Z7)” belongs “binds”.

Regarding “AcPhnA (endogenous) (from UniProt A0A1E3BB62)”, the binding result is “binds”. To “AcSko1 (endogenous) (from UniProt A0A1E3BER4)” belongs “binds”. With “AcSte7 (endogenous) (from UniProt A0A1E3BC73)”, the binding entry is “binds”.

Consider “Cla4 (endogenous) (from UniProt A0A1E3BMS4)”, for which the binding result is “binds”. Take “RodA (endogenous) (from UniProt A0A1E3B0F0)”: the binding result is “binds”. The result for “RodB (endogenous) (from UniProt A0A1E3B873)” reads “binds”; that for “Ste20 (endogenous) (from UniProt A0A1E3B8J2)”, “binds”.
